Laboratory results reported in the supplement of paper PMC4604168 (melanoma cell lines).
Some of the results follow. Many values rest on one well or one pass, so single values are uncertain.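 Imaging used 1,536-well plates; nuclei positive for cleaved PARP by antibody were divided by total DNA-stained nuclei to yield the apoptosis fraction. Doses for screening kept most cells viable, and cell lines differ markedly in resting and induced cleaved-PARP levels.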

What was measured:
Experiment in all cases: cleaved PARP positive nuclei fraction relative to DMSO control; melanoma cells; higher = more apoptosis
Conditions in all cases: library dose: low library concentration; 72 h
CBRC034 = system: CBRC034 (line from a melanoma biopsy)
COLO792 = system: COLO792
COLO800 = system: COLO800
COLO829 = system: COLO829
G361 = system: G361
IPC-298 = system: IPC-298
IST-MEL1 = system: IST-MEL1
LB2518-MEL = system: LB2518-MEL
LOXIMVI = system: LOXIMVI
MEL-HO = system: MEL-HO
MZ2-MEL = system: MZ2-MEL
MeWo = system: MeWo
RPMI7951 = system: RPMI7951
RVH-421 = system: RVH-421
SkMel28 = system: SkMel28
SkMel2 = system: SkMel2
SkMel30 = system: SkMel30
UACC62 = system: UACC62
SkMel5 = system: SkMel5
UACC257 = system: UACC257

SMILES	cleaved PARP positive nuclei fraction (CBRC034)	cleaved PARP positive nuclei fraction (COLO792)	cleaved PARP positive nuclei fraction (COLO800)	cleaved PARP positive nuclei fraction (COLO829)	cleaved PARP positive nuclei fraction (G361)	cleaved PARP positive nuclei fraction (IPC-298)	cleaved PARP positive nuclei fraction (IST-MEL1)	cleaved PARP positive nuclei fraction (LB2518-MEL)	cleaved PARP positive nuclei fraction (LOXIMVI)	cleaved PARP positive nuclei fraction (MEL-HO)	cleaved PARP positive nuclei fraction (MZ2-MEL)	cleaved PARP positive nuclei fraction (MeWo)	cleaved PARP positive nuclei fraction (RPMI7951)	cleaved PARP positive nuclei fraction (RVH-421)	cleaved PARP positive nuclei fraction (SkMel28)	cleaved PARP positive nuclei fraction (SkMel2)	cleaved PARP positive nuclei fraction (SkMel30)	cleaved PARP positive nuclei fraction (UACC62)	cleaved PARP positive nuclei fraction (SkMel5)	cleaved PARP positive nuclei fraction (UACC257)
O=C(/C=C/c1cccnc1)NCCCCC1CCN(C(=O)c2ccccc2)CC1 + CS(=O)(=O)CCNCc1ccc(-c2ccc3ncnc(Nc4ccc(OCc5cccc(F)c5)c(Cl)c4)c3c2)o1 [lapatinib] (first compound 0.01 µM, partner dose 0.8 µM)	895%	535%	144%	228%	3370%	1130%	65.2%	344%	116%	363%	684%	322%	94.4%	190%	86.8%	2210%	40.8%	168%		
CC[C@]1(O)C[C@H]2CN(CCc3c([nH]c4ccccc34)[C@@](C(=O)OC)(c3cc4c(cc3OC)N(C=O)[C@H]3[C@@](O)(C(=O)OC)[C@H](OC(C)=O)[C@]5(CC)C=CCN6CC[C@]43[C@@H]65)C2)C1 [vincristine] + NC1(c2ccc(-c3nc4ccn5c(=O)[nH]nc5c4cc3-c3ccccc3)cc2)CCC1 [MK2206] (first compound 0.0001 µM, partner dose 0.4 µM)	59.9%	158%	179%	145%	96.1%	168%	68.3%	84.1%	237%	116%	115%	156%	113%	133%	160%	92.9%	516%	366%		
O=C(/C=C/c1cccnc1)NCCCCC1CCN(C(=O)c2ccccc2)CC1 + O=C(O)[C@@H]1[O][Sb](=[O])([O][Sb]2(=[O])[O][C@H]([C@H](O)CO)[C@H](O)[C@H](C(=O)O)[O]2)[O][C@H]([C@H](O)CO)[C@@H]1O [stibogluconate] (first compound 0.01 µM, partner dose 2 µM)	513%	728%	132%	201%	4250%	218%	117%	189%	198%	120%	538%	56.6%	123%	101%	79.4%	2130%	11.7%	141%		
O=C(/C=C/c1cccnc1)NCCCCC1CCN(C(=O)c2ccccc2)CC1 + Cn1c(Nc2ccc(C(F)(F)F)cc2)nc2cc(Oc3ccnc(-c4ncc(C(F)(F)F)[nH]4)c3)ccc21 [CHIR265] (first compound 0.01 µM, partner dose 0.08 µM)	1140%	107%	186%	122%	2150%	88.9%	62.6%	190%	122%	130%	532%	357%	129%	145%	122%	511%	93.4%	335%		
Cc1cc(Nc2cc(N3CCN(C)CC3)nc(Sc3ccc(NC(=O)C4CC4)cc3)n2)n[nH]1 [Tozasertib] + Cn1sc(=O)n(Cc2ccccc2)c1=O [TDZD-8] (first compound 0.006 µM, partner dose 0.4 µM)	274%	121%	32.3%	193%	80%	130%	64%	109%	256%	162%	56.2%	79.8%	137%	332%	100%	83.7%	41.3%	67.5%		
N#CC[C@H](C1CCCC1)n1cc(-c2ncnc3[nH]ccc23)cn1 [ruxolitinib] + CC(=O)c1c(C)c2cnc(Nc3ccc(N4CCNCC4)cn3)nc2n(C2CCCC2)c1=O [palbociclib] (first compound 1 µM, partner dose 0.04 µM)	61.4%	118%	60.3%	67.6%	176%	185%	283%	51.4%	179%	145%	129%	108%	61.5%	59.5%	72.3%	61.4%	88.7%	135%		
CC[C@]1(O)C[C@H]2CN(CCc3c([nH]c4ccccc34)[C@@](C(=O)OC)(c3cc4c(cc3OC)N(C=O)[C@H]3[C@@](O)(C(=O)OC)[C@H](OC(C)=O)[C@]5(CC)C=CCN6CC[C@]43[C@@H]65)C2)C1 [vincristine] + CN1CCN(c2ccc3nc(-c4c(N)c5c(F)cccc5[nH]c4=O)[nH]c3c2)CC1 [Dovitinib] (first compound 0.0001 µM, partner dose 0.1 µM)	79.8%	140%	90.1%	122%	113%	86.9%	120%	68%	164%	42.5%	141%	126%	85.8%	124%	58.3%	119%	219%	86.7%		
Cc1cc(Nc2cc(N3CCN(C)CC3)nc(Sc3ccc(NC(=O)C4CC4)cc3)n2)n[nH]1 [Tozasertib] + NC(=O)c1ccc(N(C(N)=O)c2c(F)cccc2F)nc1-c1ccc(F)cc1F [VX702] (first compound 0.006 µM, partner dose 0.4 µM)	72.5%	29.8%	192%	101%	61.7%	44.3%	62%	116%	424%	86.4%	92.3%	122%	37.5%	71.6%	194%	33.1%	41.4%	33.8%		
N#CC[C@H](C1CCCC1)n1cc(-c2ncnc3[nH]ccc23)cn1 [ruxolitinib] + CCCS(=O)(=O)Nc1ccc(F)c(C(=O)c2c[nH]c3ncc(Cl)cc23)c1F [PLX4720] (first compound 1 µM, partner dose 0.08 µM)	219%	136%	60.1%	82.5%	34.7%	88.9%	128%	82.3%	161%	89.5%	196%	207%	91.6%	179%	64.4%	102%	82.5%	135%		
Cc1cn(-c2cc(NC(=O)c3ccc(C)c(Nc4nccc(-c5cccnc5)n4)c3)cc(C(F)(F)F)c2)cn1 [nilotinib] + C[C@@H](N)c1ccc(C(=O)Nc2ccnc3[nH]ccc23)cc1 [RKI983] (first compound 0.2 µM, partner dose 0.4 µM)	83.2%	119%	70%	123%	215%	55%	60.5%	164%	58.3%	107%	137%	115%	238%	45.4%	104%	216%	147%	131%		
N#CC[C@H](C1CCCC1)n1cc(-c2ncnc3[nH]ccc23)cn1 [ruxolitinib] + Nc1cccc2c1CN(C1CCC(=O)NC1=O)C2=O [lenalidomide] (first compound 1 µM, partner dose 1 µM)	116%	55.6%	71.2%	83.9%	101%	43.4%	36.8%	74.3%	46.8%	77.4%	96.4%	11.2%	641%	59.2%	94.5%	74.5%	78.3%	89.8%		
O=C(Nc1cc(C(F)(F)F)cc(C(F)(F)F)c1)c1cc(Cl)ccc1O + NC1(c2ccc(-c3nc4ccn5c(=O)[nH]nc5c4cc3-c3ccccc3)cc2)CCC1 [MK2206] (first compound 0.016 µM, partner dose 0.4 µM)	133%	83.5%	158%	171%	147%	58.6%	44.9%	56.3%	158%	41.1%	694%	26.8%	78.2%	59.7%	206%	140%	104%	340%		
Cc1cn(-c2cc(NC(=O)c3ccc(C)c(Nc4nccc(-c5cccnc5)n4)c3)cc(C(F)(F)F)c2)cn1 [nilotinib] + O=C(O)c1ccc2c(c1)nc(Nc1cccc(Cl)c1)c1ccncc12 [CX4945] (first compound 0.2 µM, partner dose 0.4 µM)	177%	79.5%	51.2%	136%	145%	92.5%	121%	96.2%	56.4%	190%	115%	74.4%	112%	47.7%	82.7%	118%	20.1%	175%		
Cc1cc(Nc2cc(N3CCN(C)CC3)nc(Sc3ccc(NC(=O)C4CC4)cc3)n2)n[nH]1 [Tozasertib] + Clc1ccc(Nc2nnc(Cc3ccncc3)c3ccccc23)cc1 [vatalanib] (first compound 0.006 µM, partner dose 2 µM)	97.2%	145%	118%	34.1%	71.9%	44.5%	64.8%	110%	103%	69.6%	68%	117%	122%	101%	42.3%	82.9%	166%	92.7%		
N#CC[C@H](C1CCCC1)n1cc(-c2ncnc3[nH]ccc23)cn1 [ruxolitinib] + O=C(Nc1cc(C(F)(F)F)cc(C(F)(F)F)c1)c1cc(Cl)ccc1O [IMD0354] (first compound 1 µM, partner dose 0.016 µM)	134%	173%	96.5%	38.4%	160%	182%	69%	134%	125%	82.7%	52.8%	162%	45.6%	204%	123%	159%	60.8%	28.6%		
O=C(Nc1cc(C(F)(F)F)cc(C(F)(F)F)c1)c1cc(Cl)ccc1O + C[C@@H](Oc1cc(-c2cnn(C3CCNCC3)c2)cnc1N)c1c(Cl)ccc(F)c1Cl [Crizotinib] (first compound 0.016 µM, partner dose 0.2 µM)	35.3%	55.7%	24.1%	106%	84.3%	39.9%	119%	49%	60.2%	56.7%	64.2%	32.5%	23.6%	64.1%	20.3%	161%	79.6%	111%		
O=c1[nH]nc(Sc2ncc([N+](=O)[O-])s2)n1-c1ccc2c(c1)OCCO2 + C[C@]1(O)C[C@@H](c2nc(-c3ccc4ccc(-c5ccccc5)nc4c3)c3c(N)nccn32)C1 [OSI906] (first compound 0.2 µM, partner dose 0.4 µM)	133%	112%	87%	143%	150%	182%	63.3%	217%	137%	83.3%	96.1%	53%	135%	32.7%	89.5%	221%	117%	83.9%		
N#CC[C@H](C1CCCC1)n1cc(-c2ncnc3[nH]ccc23)cn1 [ruxolitinib] + CC1(C)CCC(c2ccc(Cl)cc2)=C(CN2CCN(c3ccc(C(=O)NS(=O)(=O)c4ccc(N[C@H](CCN5CCOCC5)CSc5ccccc5)c(S(=O)(=O)C(F)(F)F)c4)cc3)CC2)C1 [ABT263] (first compound 1 µM, partner dose 0.4 µM)	389%	189%	34.6%	142%	209%	151%	87.8%	365%	359%	279%	361%	818%	229%	31.4%	65.2%	295%	118%	66.3%		
COc1cc([C@@H]2c3cc4c(cc3[C@@H](O[C@@H]3O[C@@H]5CO[C@@H](C)O[C@H]5[C@H](O)[C@H]3O)[C@H]3COC(=O)[C@H]23)OCO4)cc(OC)c1O [etoposide] + Cc1cc(N2CCOCC2)cc2[nH]c(-c3c(NC[C@@H](O)c4cccc(Cl)c4)cc[nH]c3=O)nc12 [BMS536924] (first compound 0.02 µM, partner dose 0.2 µM)		62.3%	51%	59.6%	120%	217%	193%	223%	161%	169%	121%	249%	108%	118%	150%	160%	81.1%		71.2%	33.2%
CC[C@]1(O)C[C@H]2CN(CCc3c([nH]c4ccccc34)[C@@](C(=O)OC)(c3cc4c(cc3OC)N(C=O)[C@H]3[C@@](O)(C(=O)OC)[C@H](OC(C)=O)[C@]5(CC)C=CCN6CC[C@]43[C@@H]65)C2)C1 [vincristine] + CN(NC(=O)CC(=O)NN(C)C(=S)c1ccccc1)C(=S)c1ccccc1 [STA4783] (first compound 0.0001 µM, partner dose 0.006 µM)		244%	187%	295%	237%	70.9%	124%	74.6%	46.1%	274%	74.8%	208%	221%	167%	374%	98.9%	124%	518%	166%	142%
COc1cc([C@@H]2c3cc4c(cc3[C@@H](O[C@@H]3O[C@@H]5CO[C@@H](C)O[C@H]5[C@H](O)[C@H]3O)[C@H]3COC(=O)[C@H]23)OCO4)cc(OC)c1O [etoposide] + Cc1ccc(NC(=O)c2cccc(N(C)C)c2)cc1NC(=O)c1ccc(O)cc1 [ZM336372] (first compound 0.02 µM, partner dose 2 µM)		115%	51.2%	80%	119%	218%	205%	79.4%	37.5%	106%	184%	52.1%	113%	130%	137%	65.3%	68.2%	180%	86.7%	333%

Looked up above.
cleaved PARP positive nuclei fraction (RVH-421), O=C(/C=C/c1cccnc1)NCCCCC1CCN(C(=O)c2ccccc2)CC1 + CS(=O)(=O)CCNCc1ccc(-c2ccc3ncnc(Nc4ccc(OCc5cccc(F)c5)c(Cl)c4)c3c2)o1 [lapatinib] (first compound 0.01 µM, partner dose 0.8 µM) is entered as 190%
cleaved PARP positive nuclei fraction (RPMI7951), CC[C@]1(O)C[C@H]2CN(CCc3c([nH]c4ccccc34)[C@@](C(=O)OC)(c3cc4c(cc3OC)N(C=O)[C@H]3[C@@](O)(C(=O)OC)[C@H](OC(C)=O)[C@]5(CC)C=CCN6CC[C@]43[C@@H]65)C2)C1 [vincristine] + NC1(c2ccc(-c3nc4ccn5c(=O)[nH]nc5c4cc3-c3ccccc3)cc2)CCC1 [MK2206] (first compound 0.0001 µM, partner dose 0.4 µM) is entered as 113%
